Measurements reported in patent publication US20150368343A1.
Results are given in words; binding and its absence hold for the method and conditions named. A result given as binding can be weak or reduced; the word gives no strength.

Key:
Assay in all cases: flow cytometry, 293T transfectants, 2 mM CaCl2
[1] = molecular target: rhCDH19(1-43)::FLAG::rhCDH19(44-772) (rhesus macaque)
[2] = molecular target: ckCDH19(1-43)::FLAG::ckCDH19(44-249)::huCDH19(250-364)::ckCDH19(365-776) (human/chicken chimera)
[3] = molecular target: muCDH19(44-323)::raCDH19(324-327)::muCDH19(328-770), FLAG-tagged (rat/mouse chimera)
[4] = molecular target: muCDH19(44-770)::huCDH19(271), FLAG-tagged (human/mouse chimera)
[5] = molecular target: raCDH19(1-43)::FLAG::raCDH19(44-770) (rat)
[6] = molecular target: huCDH19(1-43)::FLAG::huCDH19(44-141)::ckCDH19(142-776) (human/chicken chimera)
[7] = molecular target: rhCDH19(1-43)::FLAG::rhCDH19(44-141)::caCDH19(141-770) (rhesus macaque/dog chimera)

Measured: binding

B1: anti-CDH19 antibody 4A2 (Ab ID 13592) (antibody, human IgG1, kappa, V domains shown)
VH: QVQLQESGPGLVKPSQTLSLTCTVSGGSISSSGYYWSWIRQHPGKGLEWIGYIYYTGSAYYNPSLKSRVTISVDTSKNQFSLKLSSVTAADTAVYYCARDGSSGWYFQYWGQGTLVTVSS
VL: EIVLTQSPGTLSLSPGERATLSCRASRNISSSYLAWYQQKPGQAPRLLIYGPSSRATGIPDRFSGSGSGTDFTLTISRLEPEDFTVYYCQQYGSSFTFGPGTKVDIKR
binds: [1]

B2: anti-CDH19 antibody 2G6 (Ab ID 13588) (antibody, human IgG1, lambda, V domains shown)
VH: QVQLVESGGGVVQPGRSLRLSCAASGFTFSSYGMHWVRQAPGKGLEWVAFIWYDGSNKYYADSVKDRFTISRDNSKNTLYLQMKSLRAEDTAVYYCARRAGIIGTIGYYYGMDVWGQGTTVTVSS
VL: SYELTQPPSVSVSPGQTASITCSGDRLGEKYTCWYQQRPGQSPLLVIYQDTKRPSGIPERFSGSNSGNTATLTISGTQAMDEADYYCQAWDSSTVVFGGGTKLTVLG
not listed: [6] | [7]
binds: all other assays above

B3: hu anti-<huCDH19> 4A9, huIgG1z / huLLC-C1 (Ab ID 13589) (antibody, V domains shown)
VH: QVQLQESGPGLVKPSETLSLTCTVSGGSISGYYWSWIRQPPGKGLEWFAYFSYSGSTNYNPSLKSRVTLSVDTSKNQFSLKLSSVTAADTAVYYCARNWAFHFDFWGQGTLVTVSS
VL: QSVLTQPPSVSGAPGQRVTISCTGSSSNIGTGYAVHWYQQFPGTAPKLLIYGNNNRPSGVPDRFSGSKSGTSASLAITGLQAEDEADYYCQSYDSRLSGWVFGGGTKLTVLG
binds: [6] | [7] | [1]
